Test results from patent EP0670711B1, “ANTIFUNGAL MOUTHCARE COMPOSITIONS” (AMBI Inc., priority 1992, dated 1994).

Experiments:
Type in all cases: cell-based
Act. israelii = test: nominal inhibitory concentration (NIC) assay; conditions: Actinomyces israelii, read-out: NIC
Procedure: (§1) The antibacterial spectrum of activity of Ambicin N (Amb) was determined by testing the compound against a range of orally important Gram negative and Gram positive bacteria in a conventional nominal inhibitory concentration (NIC) assay and compared with that of cetyl pyridinium chloride (CPC), chlorhexidine (CHX) and triclosan. […] In comparison, CPC, CHX and TCN are all effective against Candida.

Candida albicans = test: nominal inhibitory concentration (NIC) assay; conditions: read-out: NIC
Procedure: as §1

[1] = system: all the organisms shown in the Example 25 Table 1; test: NIC assay, summary over all organisms of Table 1; conditions: read-out: levels needed to inhibit all the desired oral microrganisms
Candida organisms = test: NIC assay, summary for Candida; conditions: read-out: levels for Candida inhibition

Which MIC (Act. israelii) does the source give for CCCCCCCCCCCCCCCC[n+]1ccccc1 [CPC, cetyl pyridinium chloride] here?
Its MIC is 8.15 mg/L.

And the MIC (Candida albicans)?
Its MIC is 1.39 mg/L.

And the MIC [1]?
The MIC was ~8.15 mg/L.

And the MIC (Candida organisms)?
Its MIC is ~1.39 mg/L.
